These are yes or no findings as the source states them, for the method shown. Some entries that bind do so weakly or less than the wild type.
Molecular target: recombinant 41-BB (UniProt Q07011)
Experiment: flow cytometry, recombinant 41-BB on engineered red blood cells

Protein sequences, listed by entry. Tags and fused reporters are not part of them. Residues count along the entry.
UniProt Q07011, residues 24-186: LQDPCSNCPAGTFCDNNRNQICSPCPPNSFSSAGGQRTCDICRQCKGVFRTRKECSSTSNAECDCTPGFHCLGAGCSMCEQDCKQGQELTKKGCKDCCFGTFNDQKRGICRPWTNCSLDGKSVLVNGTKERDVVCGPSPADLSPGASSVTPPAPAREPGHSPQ
UniProt P41273: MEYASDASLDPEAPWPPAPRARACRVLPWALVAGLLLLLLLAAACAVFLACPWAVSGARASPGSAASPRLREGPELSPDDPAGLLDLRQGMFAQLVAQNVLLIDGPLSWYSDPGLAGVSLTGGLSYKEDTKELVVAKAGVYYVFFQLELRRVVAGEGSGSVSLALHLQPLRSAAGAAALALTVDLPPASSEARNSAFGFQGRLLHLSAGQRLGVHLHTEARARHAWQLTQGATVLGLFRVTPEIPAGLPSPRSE

41-BB-L expressed on RCTs (RCT-41-BB-L) (from UniProt P41273 1-254) (ligand)
binding: binds

From patent US20230293588A1
